Several values for one entry are separate records, joined by “and”; a condition that tells them apart may be missing. Equal values may be shown once. Where a name gives a salt, the structure may show the parent alone. ± gives the standard deviation of the averaged measurements. Some of the results follow. Most values come without repeats; read them as rough.
System: RAW 264.7
Test: HMGB1-induced TNF-alpha production relative to HMGB1-stimulated control; higher = more TNF-alpha secretion (less inhibition)
Settings: stimulus: HMGB1 5 ug/ml, 18 h
[1] = compound concentration: 1 ug/ml

SMILES | HMGB1-induced TNF-alpha production (compound concentration: 3 uM) | HMGB1-induced TNF-alpha production [1] [%]
C=CC(N)CCC(=O)O (stereo not given) | 82% | 
C=CC(N)CCC(=O)O (stereo not given) [Vigabatrin] | 61.7% | 
Cc1ncc(C[n+]2csc(CCO)c2C)c(N)n1 | 85.2% | 
CC(C)c1c(C(=O)Nc2ccccc2)c(-c2ccccc2)c(-c2ccc(F)cc2)n1CC[C@@H](O)C[C@@H](O)CC(=O)O | 70.7% | 
CC(C)c1c(C(=O)Nc2ccccc2)c(-c2ccccc2)c(-c2ccc(F)cc2)n1CC[C@@H](O)C[C@@H](O)CC(=O)O [Atorvastatin] | 103% | 
CN(C)CCC(c1ccc(Cl)cc1)c1ccccn1 (racemic) [(±)-Chlorpheniramine maleate] | 80.5% | 
CC(=O)OCC(=O)[C@@]1(O)CC[C@H]2[C@@H]3CCC4=CC(=O)CC[C@]4(C)[C@H]3[C@@H](O)C[C@@]21C [Cortisol acetate] | 47.4% | 
CC(=O)OCC(=O)[C@@]1(O)CC[C@H]2[C@@H]3CCC4=CC(=O)CC[C@]4(C)[C@H]3[C@@H](O)C[C@@]21C [Hydrocortisone 21-acetate] | 53.1% | 
CC(=O)OCC(=O)[C@@]1(O)CC[C@H]2[C@@H]3CCC4=CC(=O)CC[C@]4(C)[C@H]3[C@@H](O)C[C@@]21C | 51.4% | 
CCN[C@H]1CN(CCCOC)S(=O)(=O)c2sc(S(N)(=O)=O)cc21 [Brinzolamide] | 54.1% | 
CC(=O)S[C@@H]1CC2=CC(=O)CC[C@]2(C)[C@H]2CC[C@@]3(C)[C@@H](CC[C@@]34CCC(=O)O4)[C@H]12 | 83.2% | 
CC(=O)S[C@@H]1CC2=CC(=O)CC[C@]2(C)[C@H]2CC[C@@]3(C)[C@@H](CC[C@@]34CCC(=O)O4)[C@H]12 [Spironolactone] | 91.5 ± 36% | 
CC(C)(C)NCC(O)COc1cccc2[nH]c(=O)[nH]c12 (racemic) | 80.2% | 
COc1ccccc1-c1oc2ccccc2c(=O)c1OC |  | 74.5
CCCc1cc(C(N)=S)ccn1 | 98.7% | 
CCCc1cc(C(N)=S)ccn1 [Prothionamide] | 87.3 ± 2.1% | 
COc1cc(-c2oc3c(O)c(OC4OC(COC(C)=O)C(O)C(O)C4OC4OC(C)C(O)C(O)C4O)cc(O)c3c(=O)c2O)ccc1O (stereo not given) [Haploside D] |  | 80.2
CC(Cc1cccc(C(F)(F)F)c1)NCCOC(=O)c1ccccc1 (stereo not given) | 80% | 
CC(Cc1cccc(C(F)(F)F)c1)NCCOC(=O)c1ccccc1 (stereo not given) [Benfluorex hydrochloride] | 50.6% | 
C=C1CC[C@H](O)C/C1=C/C=C1\CCC[C@]2(C)[C@@H]([C@H](C)CCCC(C)C)CC[C@@H]12 [Cholecalciferol] | 69.6% | 
C=C1CC[C@H](O)C/C1=C/C=C1\CCC[C@]2(C)[C@@H]([C@H](C)CCCC(C)C)CC[C@@H]12 | 83.2% | 
NC1(C(=O)O)CCCCC1 [1-Amino-1-cyclohexanecarboxylic acid hydrochloride] | 87.4% | 
NNCCc1ccccc1 [Phenelzine sulfate] | 121 ± 7.3% | 
NNCCc1ccccc1 | 96.5% and 102% | 
C[C@H]1O[C@H](O[C@H]2[C@H](O)[C@@H](O)[C@@H](O[C@H]3[C@H](O)[C@@H](O)C(O)O[C@@H]3CO)O[C@@H]2CO)[C@H](O)[C@@H](O)[C@@H]1N[C@H]1C=C(CO)[C@@H](O)[C@H](O)[C@H]1O (stereo not given in full) [Acarbose] | 117% | 
C[C@H]1O[C@H](O[C@H]2[C@H](O)[C@@H](O)[C@@H](O[C@H]3[C@H](O)[C@@H](O)C(O)O[C@@H]3CO)O[C@@H]2CO)[C@H](O)[C@@H](O)[C@@H]1N[C@H]1C=C(CO)[C@@H](O)[C@H](O)[C@H]1O (stereo not given in full) | 92.4 ± 3.1% | 
CC(C)(C=O)Cc1cc(C(C)(C)C)c(O)c(C(C)(C)C)c1 | 76.2% | 

Quoted from the listing:
NC1(C(=O)O)CCCCC1 [1-Amino-1-cyclohexanecarboxylic acid hydrochloride] – HMGB1-induced TNF-alpha production (compound concentration: 3 uM): 87.4%
CC(=O)OCC(=O)[C@@]1(O)CC[C@H]2[C@@H]3CCC4=CC(=O)CC[C@]4(C)[C@H]3[C@@H](O)C[C@@]21C – HMGB1-induced TNF-alpha production (compound concentration: 3 uM): 51.4%

Single records, from the list above.
CCN[C@H]1CN(CCCOC)S(=O)(=O)c2sc(S(N)(=O)=O)cc21 [Brinzolamide] in the list: HMGB1-induced TNF-alpha production (compound concentration: 3 uM): 54.1%
NNCCc1ccccc1 [Phenelzine sulfate] in the list: HMGB1-induced TNF-alpha production (compound concentration: 3 uM): 121 ± 7.3%

More entries:

SMILES | HMGB1-induced TNF-alpha production (compound concentration: 3 uM) | HMGB1-induced TNF-alpha production [1] [%]
CC(C)(CO)[C@@H](O)C(=O)NCCC(=O)NCCSSCCNC(=O)CCNC(=O)[C@H](O)C(C)(C)CO | 75% | 
CN1CCN(CC/C=C2/c3ccccc3Sc3ccc(S(=O)(=O)N(C)C)cc32)CC1 | 85.2% | 
CN1CCC(=C2c3ccccc3C=Cc3ccccc32)CC1 | 89.4 ± 27% | 
CN1CCC(=C2c3ccccc3C=Cc3ccccc32)CC1 [Cyproheptadine] | 85% | 
CN1CCC(=C2c3ccccc3C=Cc3ccccc32)CC1 [Cyproheptadine hydrochloride] | 78.8 ± 9.1% | 
NCC(O)C1CCCCCCC1 (stereo not given) [2-Cyclooctyl-2-hydroxyethylamine hydrochloride] | 82.1% | 
CC(C)(C)NC[C@@H](O)COc1cccc2c1CCCC2=O [(+) -Levobunolol hydrochloride] | 97.2% | 
CO[C@H]1/C=C/O[C@@]2(C)Oc3c(C)c(O)c4c(O)c(c(/C=N/N5CCN(C6CCCC6)CC5)c(O)c4c3C2=O)NC(=O)/C(C)=C\C=C\[C@H](C)[C@H](O)[C@@H](C)[C@@H](O)[C@@H](C)[C@H](OC(C)=O)[C@@H]1C | 91.4% | 
CO[C@H]1/C=C/O[C@@]2(C)Oc3c(C)c(O)c4c(O)c(c(/C=N/N5CCN(C6CCCC6)CC5)c(O)c4c3C2=O)NC(=O)/C(C)=C\C=C\[C@H](C)[C@H](O)[C@@H](C)[C@@H](O)[C@@H](C)[C@H](OC(C)=O)[C@@H]1C [Rifapentine] | 69.4% | 
N=C(N)NC(=N)NCCc1ccccc1 | 107% | 
N=C(N)NC(=N)NCCc1ccccc1 [Phenformin hydrochloride] | 87.1% | 
CC(=O)OCC(=O)[C@@]1(O)[C@@H](C)C[C@H]2[C@@H]3CCC4=CC(=O)C=C[C@]4(C)[C@@]3(F)[C@@H](O)C[C@@]21C | 33.7% | 
C[C@@H]1C[C@H]2[C@@H]3C[C@H](F)C4=CC(=O)C=C[C@]4(C)[C@@]3(F)[C@@H](O)C[C@]2(C)[C@@]1(O)C(=O)CO | 31.3% | 
C[C@@H]1C[C@H]2[C@@H]3C[C@H](F)C4=CC(=O)C=C[C@]4(C)[C@@]3(F)[C@@H](O)C[C@]2(C)[C@@]1(O)C(=O)CO [Flumethasone] | 37% | 
O=C(O)Cc1ccc(-c2ccccc2)cc1 [Felbinac] | 106% | 
O=C(O)c1cn(-c2ccc(F)cc2)c2cc(N3CCNCC3)c(F)cc2c1=O [Sarafloxacin] | 104 ± 8.4% | 
O=C(O)c1cn(-c2ccc(F)cc2)c2cc(N3CCNCC3)c(F)cc2c1=O | 102% | 
CC[C@H](/C=C/[C@@H](C)[C@H]1CC[C@H]2[C@@H]3CC=C4C[C@@H](O)CC[C@]4(C)[C@H]3CC[C@]12C)C(C)C [Stigmasterol] |  | 79.7
C[N+]1(C)CCC(OC(=O)C(O)(c2ccccc2)C2CCCC2)C1 (stereo not given) [Glycopyrrolate] | 103% | 
C[N+]1(C)CCC(OC(=O)C(O)(c2ccccc2)C2CCCC2)C1 (stereo not given) | 95 ± 21% | 
Clc1ccc(CCC(Cn2ccnc2)Sc2c(Cl)cccc2Cl)cc1 (stereo not given) [Butoconazole nitrate] | 72.7% | 
N#Cc1ccc(C(c2ccc(C#N)cc2)n2cncn2)cc1 | 103% | 
N#Cc1ccc(C(c2ccc(C#N)cc2)n2cncn2)cc1 [Letrozole] | 95.8 ± 9.1% | 
COc1c2occc2cc2ccc(=O)oc12 | 95.7% | 
COc1c2occc2cc2ccc(=O)oc12 [8-Methoxypsoralen] |  | 72.3
N=C(NCCCCCCNC(=N)NC(=N)Nc1ccc(Cl)cc1)NC(=N)Nc1ccc(Cl)cc1 [Chlorhexidine] | 60% | 
N=C(NCCCCCCNC(=N)NC(=N)Nc1ccc(Cl)cc1)NC(=N)Nc1ccc(Cl)cc1 | 107 ± 12% | 

SMILES | HMGB1-induced TNF-alpha production (compound concentration: 3 uM) | HMGB1-induced TNF-alpha production [1] [%]
NCc1ccccc1CC(=O)N[C@@H]1C(=O)N2C(C(=O)O)=C(CSc3nnnn3CC(=O)O)CS[C@H]12 [Ceforanide] | 74.6% | 
CN1CCN(C2=Nc3ccccc3Oc3ccc(Cl)cc32)CC1 [Loxapine succinate] | 85.7 ± 6.3% | 
CN1CCN(C2=Nc3ccccc3Oc3ccc(Cl)cc32)CC1 | 107.2 ± 0.92% | 
Oc1ccc2ccccc2c1 [beta-NAPHTHOL] | 98.6% | 
C[N+]1(C)CCC(OC(=O)C(c2ccccc2)c2ccccc2)CC1 [4-DAMP methiodide] | 99.9% | 
Oc1cc(O)c2c(c1)O[C@H](c1ccc(O)c(O)c1)[C@@H](O)C2 | 89.4% | 
Oc1cc(O)c2c(c1)O[C@H](c1ccc(O)c(O)c1)[C@@H](O)C2 [(+)-Catechin Hydrate] | 83% | 
Cc1[nH]ccc2c1[nH]c1cc(=O)ccc12 [Harmol hydrochloride dihydrate] |  | 74.5
Cc1[nH]ccc2c1[nH]c1cc(=O)ccc12 [Harmol hydrochloride monohydrate] | 107% | 
CC(=O)Oc1ccccc1C(=O)Nc1ncc([N+](=O)[O-])s1 | 107% | 
CNCCc1c2cc(O)ccc2n2oc(=O)c(=O)oc12 [N-Methylserotonin oxalate] |  | 71.2
CCN(CC)CCOC(=O)C1(C2CCCCC2)CCCCC1 | 75.4% | 
CCN(CC)CCOC(=O)C1(C2CCCCC2)CCCCC1 [Dicyclomine hydrochloride] | 67 ± 12% | 
O=C1CC(c2ccccc2O)Oc2ccc(O)cc21 (stereo not given) [2',6-Dihydroxyflavanone] |  | 64.4
Cc1c(-c2ccccc2)oc2cc(O)ccc2c1=O |  | 64.8
CC(N/C(=N\C#N)Nc1ccncc1)C(C)(C)C (stereo not given) [Pinacidil monohydrate] | 106% | 
CC(N/C(=N\C#N)Nc1ccncc1)C(C)(C)C (stereo not given) | 93% | 
CC(N/C(=N\C#N)Nc1ccncc1)C(C)(C)C (stereo not given) [Pinacidil] | 90.2 ± 4.4% | 
CC1(C)OC(=O)C(OCC2CC2)=C1c1ccc(S(C)(=O)=O)cc1 | 88.2% | 
COc1ccc([C@@H]2CC(=O)c3c(O)cc(O)cc3O2)cc1O [Hesperetin] |  | 74.7
CN(C)CCCN1c2ccccc2Sc2ccc(C(F)(F)F)cc21 | 86.9% | 
CN(C)CCCN1c2ccccc2Sc2ccc(C(F)(F)F)cc21 [Triflupromazine hydrochloride] | 89.9 ± 30% | 
COc1ccc2c(c1)CCC1C2CCC2(C)C(NCCCCCCN3C(=O)C=CC3=O)CCC12 (stereo not given) | 87.6% | 
COc1cc(C(=O)OCCCN2CCCN(CCCOC(=O)c3cc(OC)c(OC)c(OC)c3)CC2)cc(OC)c1OC [Dilazep] | 84% | 
COc1cc(C(=O)OCCCN2CCCN(CCCOC(=O)c3cc(OC)c(OC)c(OC)c3)CC2)cc(OC)c1OC [Dilazep dihydrochloride] | 90.4% | 
COc1cc(C(=O)OCCCN2CCCN(CCCOC(=O)c3cc(OC)c(OC)c(OC)c3)CC2)cc(OC)c1OC [Dilazep hydrochloride] | 69.8% | 

— the supplement of paper PMC3682954
